Reference: publication PMC12264102
No constants are given. Whether binding was seen depends on the method and setting. In cells and extracts the contact can be indirect. Sequences can lack the tags named with a protein.

Target: OTUD1 with residues 1-308 mutated
Assay: co-IP; IP analysis of OTUD1 truncation constructs with SLC25A11; cell lysate, antibody overnight at 4 °C, Protein A/G magnetic beads, western blot; cells and tags not stated

B1: SLC25A11-HA (pcDNA3.1-SLC25A11-HA) (protein, UniProt Q02978 1-314)
chain: MAATASAGAGGIDGKPRTSPKSVKFLFGGLAGMGATVFVQPLDLVKNRMQLSGEGAKTREYKTSFHALTSILKAEGLRGIYTGLSAGLLRQATYTTTRLGIYTVLFERLTGADGTPPGFLLKAVIGMTAGATGAFVGTPAEVALIRMTADGRLPADQRRGYKNVFNALIRITREEGVLTLWRGCIPTMARAVVVNAAQLASYSQSKQFLLDSGYFSDNILCHFCASMISGLVTTAASMPVDIAKTRIQNMRMIDGKPEYKNGLDVLFKVVRYEGFFSLWKGFTPYYARLGPHTVLTFIFLEQMNKAYKRLFLSG
binding: no binding
